Assay results as given in publication PMC5687603.

T1: recombinant mouse short-form Klotho with C-terminal Flag and 6xHis (HEK293) (mouse) (UniProt O35082)
T1 sequence (chain, N-glycosylated at N161, N285 and N346): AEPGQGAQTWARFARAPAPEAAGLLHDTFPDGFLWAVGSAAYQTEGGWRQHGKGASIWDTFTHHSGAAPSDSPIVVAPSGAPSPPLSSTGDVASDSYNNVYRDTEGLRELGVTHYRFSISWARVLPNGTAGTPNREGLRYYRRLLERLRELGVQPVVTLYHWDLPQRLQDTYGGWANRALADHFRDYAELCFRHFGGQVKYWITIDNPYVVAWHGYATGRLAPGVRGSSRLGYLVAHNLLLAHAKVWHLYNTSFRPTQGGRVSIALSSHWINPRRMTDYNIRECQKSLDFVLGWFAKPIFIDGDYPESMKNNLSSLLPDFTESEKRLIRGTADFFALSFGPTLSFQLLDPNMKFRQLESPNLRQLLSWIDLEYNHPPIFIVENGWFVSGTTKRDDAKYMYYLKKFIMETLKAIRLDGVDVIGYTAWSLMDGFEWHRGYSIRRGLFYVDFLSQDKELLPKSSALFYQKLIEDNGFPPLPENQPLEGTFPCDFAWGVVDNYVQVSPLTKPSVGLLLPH

B1: Heterogeneous nuclear ribonucleoprotein M (protein, UniProt P52272 1-730)
chain: MAAGVEAAAEVAATEIKMEEESGAPGVPSGNGAPGPKGEGERPAQNEKRKEKNIKRGGNRFEPYANPTKRYRAFITNIPFDVKWQSLKDLVKEKVGEVTYVELLMDAEGKSRGCAVVEFKMEESMKKAAEVLNKHSLSGRPLKVKEDPDGEHARRAMQKVMATTGGMGMGPGGPGMITIPPSILNNPNIPNEIIHALQAGRLGSTVFVANLDYKVGWKKLKEVFSMAGVVVRADILEDKDGKSRGIGTVTFEQSIEAVQAISMFNGQLLFDRPMHVKMDERALPKGDFFPPERPQQLPHGLGGIGMGLGPGGQPIDANHLNKGIGMGNIGPAGMGMEGIGFGINKMGGMEGPFGGGMENMGRFGSGMNMGRINEILSNALKRGEIIAKQGGGGGGGSVPGIERMGPGIDRLGGAGMERMGAGLGHGMDRVGSEIERMGLVMDRMGSVERMGSGIERMGPLGLDHMASSIERMGQTMERIGSGVERMGAGMGFGLERMAAPIDRVGQTIERMGSGVERMGPAIERMGLSMERMVPAGMGAGLERMGPVMDRMATGLERMGANNLERMGLERMGANSLERMGLERMGANSLERMGPAMGPALGAGIERMGLAMGGGGGASFDRAIEMERGNFGGSFAGSFGGAGGHAPGVARKACQIFVRNLPFDFTWKMLKDKFNECGHVLYADIKMENGKSKGCGVVKFESPEVAERACRMMNGMKLSGREIDVRIDRNA
B2: Peroxiredoxin-6 (protein, UniProt P30041 1-224)
chain: MPGGLLLGDVAPNFEANTTVGRIRFHDFLGDSWGILFSHPRDFTPVCTTELGRAAKLAPEFAKRNVKLIALSIDSVEDHLAWSKDINAYNCEEPTEKLPFPIIDDRNRELAILLGMLDPAEKDEKGMPVTARVVFVFGPDKKLKLSILYPATTGRNFDEILRVVISLQLTAEKRVATPVDWKDGDSVMVLPTIPEEEAKKLFPKGVFTKELPSGKKYLRYTPQP
B3: Serpin H1 (protein, UniProt P50454 19-418)
chain: AEVKKPAAAAAPGTAEKLSPKAATLAERSAGLAFSLYQAMAKDQAVENILVSPVVVASSLGLVSLGGKATTASQAKAVLSAEQLRDEEVHAGLGELLRSLSNSTARNVTWKLGSRLYGPSSVSFADDFVRSSKQHYNCEHSKINFRDKRSALQSINEWAAQTTDGKLPEVTKDVERTDGALLVNAMFFKPHWDEKFHHKMVDNRGFMVTRSYTVGVMMMHRTGLYNYYDDEKEKLQIVEMPLAHKLSSLIILMPHHVEPLERLEKLLTKEQLKIWMGKMQKKAVAISLPKGVVEVTHDLQKHLAGLGLTEAIDKNKADLSRMSGKKDLYLASVFHATAFELDTDGNPFDQDIYGREELRSPKLFYADHPFIFLVRDTQSGSLLFIGRLVRPKGDKMRDEL
B4: UPF0568 protein C14orf166 (protein, UniProt Q9Y224 1-244)
chain: MFRRKLTALDYHNPAGFNCKDETEFRNFIVWLEDQKIRHYKIEDRGNLRNIHSSDWPKFFEKYLRDVNCPFKIQDRQEAIDWLLGLAVRLEYGDNAEKYKDLVPDNSKTADNATKNAEPLINLDVNNPDFKAGVMALANLLQIQRHDDYLVMLKAIRILVQERLTQDAVAKANQTKEGLPVALDKHILGFDTGDAVLNEAAQILRLLHIEELRELQTKINEAIVAVQAIIADPKTDHRLGKVGR

target: T1, recombinant mouse short-form Klotho with C-terminal Flag and 6xHis (HEK293) (mouse); test: affinity purification with mass spectrometry; lysates of HEK293 cells expressing Skl-Flag-6xHis, Klotho or Flag antibody on IP-Direct beads, low-pH elution, SDS-PAGE, in-gel trypsin digest, nano-LC-nano-ESI MS/MS, Mascot search of Swiss-Prot; compared with control cells

Row | binding | Binder
1 | binds | B1
2 | binds | B2
3 | binds | B3
4 | binds | B4

No constants are given. Whether binding was seen depends on the method and setting. Binding seen in cells or lysates may run through a third protein. These calls come from enrichment with a bait or labelling near it, and not all partners need be listed. Sequences can lack the tags named with a protein.
